From paper PMC12229684
No constants are given. Whether binding was seen depends on the method and setting. In cells and extracts the contact can be indirect. Here binding means that the protein was enriched with, or labelled near, the bait; the list need not be complete. Sequences can lack the tags named with a protein.

Target: T1, epidermal growth factor latrophilin and seven transmembrane domain-containing protein 1 (ELTD1), Flag-tagged (human) (UniProt Q9HBW9)
T1 sequence: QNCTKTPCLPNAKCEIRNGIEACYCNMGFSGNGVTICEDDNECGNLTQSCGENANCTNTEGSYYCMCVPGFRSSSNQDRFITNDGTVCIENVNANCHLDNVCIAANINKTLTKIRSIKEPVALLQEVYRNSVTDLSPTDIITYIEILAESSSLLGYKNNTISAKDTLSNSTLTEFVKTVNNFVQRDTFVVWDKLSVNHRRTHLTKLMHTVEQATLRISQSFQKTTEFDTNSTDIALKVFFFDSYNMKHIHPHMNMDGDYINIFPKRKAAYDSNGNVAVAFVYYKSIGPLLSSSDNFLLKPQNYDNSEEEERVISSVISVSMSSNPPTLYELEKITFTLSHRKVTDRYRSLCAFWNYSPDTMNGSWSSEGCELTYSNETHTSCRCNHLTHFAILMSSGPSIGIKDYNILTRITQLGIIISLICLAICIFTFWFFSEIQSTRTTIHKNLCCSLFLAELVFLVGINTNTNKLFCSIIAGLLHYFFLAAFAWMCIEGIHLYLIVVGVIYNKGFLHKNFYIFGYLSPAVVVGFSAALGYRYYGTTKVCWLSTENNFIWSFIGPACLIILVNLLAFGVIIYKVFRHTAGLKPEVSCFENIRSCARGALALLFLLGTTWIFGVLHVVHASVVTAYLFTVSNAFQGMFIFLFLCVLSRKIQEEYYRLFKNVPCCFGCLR
Assay: affinity purification with mass spectrometry; lysate of cell lines expressing Flag-ELTD1, anti-Flag M2 magnetic beads, 4 °C overnight, SDS-PAGE, silver staining, tryptic digestion, Orbitrap Exploris 480

binding: binds
B1: HPIP (hematopoietic PBX1-interacting protein) (protein, UniProt Q96AQ6 1-731)
chain: MASCPDSDNSWVLAGSESLPVETLGPASRMDPESERALQAPHSPSKTDGKELAGTMDGEGTLFQTESPQSGSILTEETEVKGTLEGDVCGVEPPGPGDTVVQGDLQETTVVTGLGPDTQDLEGQSPPQSLPSTPKAAWIREEGRCSSSDDDTDVDMEGLRRRRGREAGPPQPMVPLAVENQAGGEGAGGELGISLNMCLLGALVLLGLGVLLFSGGLSESETGPMEEVERQVLPDPEVLEAVGDRQDGLREQLQAPVPPDSVPSLQNMGLLLDKLAKENQDIRLLQAQLQAQKEELQSLMHQPKGLEEENAQLRGALQQGEAFQRALESELQQLRARLQGLEADCVRGPDGVCLSGGRGPQGDKAIREQGPREQEPELSFLKQKEQLEAEAQALRQELERQRRLLGSVQQDLERSLQDASRGDPAHAGLAELGHRLAQKLQGLENWGQDPGVSANASKAWHQKSHFQNSREWSGKEKWWDGQRDRKAEHWKHKKEESGRERKKNWGGQEDREPAGRWKEGRPRVEESGSKKEGKRQGPKEPPRKSGSFHSSGEKQKQPRWREGTKDSHDPLPSWAELLRPKYRAPQGCSGVDECARQEGLTFFGTELAPVRQQELASLLRTYLARLPWAGQLTKELPLSPAFFGEDGIFRHDRLRFRDFVDALEDSLEEVAVQQTGDDDEVDDFEDFIFSHFFGDKALKKRSGKKDKHSQSPRAAGPREGHSHSHHHHHRG
